The values below come from patent publication US20210324109A1.

By UniProt entry, the sequences of proteins in these tests, tags left out. Residues count along the entry.
UniProt P00742, residues 41-488: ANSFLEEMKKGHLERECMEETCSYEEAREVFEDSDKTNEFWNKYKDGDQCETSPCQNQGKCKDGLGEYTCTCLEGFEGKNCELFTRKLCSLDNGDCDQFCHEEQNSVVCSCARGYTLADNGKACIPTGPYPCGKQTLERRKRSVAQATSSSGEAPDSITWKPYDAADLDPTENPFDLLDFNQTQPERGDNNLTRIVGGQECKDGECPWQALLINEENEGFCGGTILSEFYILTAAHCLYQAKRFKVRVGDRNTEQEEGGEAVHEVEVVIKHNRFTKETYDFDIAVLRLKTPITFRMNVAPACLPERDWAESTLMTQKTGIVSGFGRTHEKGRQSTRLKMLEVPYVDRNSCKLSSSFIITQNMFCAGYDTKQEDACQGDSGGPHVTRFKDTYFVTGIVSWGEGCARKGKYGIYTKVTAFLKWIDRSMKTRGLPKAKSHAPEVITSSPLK

These are yes or no findings as the source states them, for the method shown. Some binding calls cover weakened binding; strength is not graded here.

In experiment [1] the target is Factor X (Enzyme Research Laboratories) (UniProt P00742). Nature of the experiment: ELISA, plate-coated Factor X. (In an ELISA, binding on a coated surface is turned into a signal by an enzyme label.)
The target is the same in experiment [2]. The experiment can be described thus: ELISA, plate-coated Factor X 1 µg/ml, absorbance at 405 nm.

B1: humanized B26 antibody (hB26-F123e4) (antibody, V domains shown)
VH: QVQLVQSGPDVKKPGASVKVSCKASGYMFSDNNMDWARQAPGQGLEWMGDINTKSGGSIYNQKFKGRVIMTIDKSTGTAYMELRSLRSDDTAIYYCARRRSYGYYFDYWGQGTLVTVSS
VL: DIVLTQSQKFMSTSVGDRVSITCKASQNVGTAVAWYQQKPGQSPKALIYSASYRYSGVPDRFTGSGSGTDFTLTISNVQSEDLAEYFCQQYNSYPLTFGAGTKLEIKR
modifications: N-terminal glutamine assumed to be pyroglutamylated (Pyr(Q) at H1)
In the case of B1, the binding result in experiment [1] and in experiment [2] was “binds” in each case.
